Test results: patent US20140363434A1 (COMPLIX, published 2014)
Substitutions are numbered along the chain they refer to. Results are given in words; binding and its absence hold for the method and conditions named. Some binding calls cover weakened binding; strength is not graded here. Blank lines part the entries; values can stand above or below the binder they belong to.

By UniProt entry, the sequences of proteins in these tests, tags left out.
UniProt Q07820: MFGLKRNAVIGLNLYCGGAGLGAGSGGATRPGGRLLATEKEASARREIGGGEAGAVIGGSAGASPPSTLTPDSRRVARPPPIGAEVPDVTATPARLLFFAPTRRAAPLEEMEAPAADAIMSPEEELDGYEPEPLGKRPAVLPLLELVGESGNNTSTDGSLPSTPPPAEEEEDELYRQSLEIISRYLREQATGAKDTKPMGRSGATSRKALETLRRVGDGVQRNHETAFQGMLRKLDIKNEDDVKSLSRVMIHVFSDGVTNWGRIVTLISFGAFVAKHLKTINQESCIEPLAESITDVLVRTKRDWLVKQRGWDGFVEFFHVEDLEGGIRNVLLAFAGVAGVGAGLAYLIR

What was measured:
[1] = target: MCL-1 in MCL-1 transfected HEK cell lysate (Santa Cruz) (UniProt Q07820); assay: dot blot: MCL-1 transfected HEK cell lysate spotted on nitrocellulose, incubated with Alphabody, detected with anti-His antibody-HRP
[2] = target: MCL-1 in MCL-1 transfected HEK cell lysate (Santa Cruz) (UniProt Q07820); assay: dot blot on spotted MCL-1 transfected HEK cell lysate
[3] = target: MCL-1 in MCL-1 transfected HEK cell lysate (Santa Cruz) (UniProt Q07820); assay: dot blot on spotted MCL-1 transfected HEK cell lysate; 1, 5 and 10 microM Alphabody; anti-His-HRP detection

- binding [1]: binds
- binding [2]: binds
- binding [3]: binds
B1: KLPVM-MCL1-AB1 (designed binder)
chain: KLPVMMSIEEIQKQIAAIQKQIAAIEKQIYAMTGGSGGGSGGGSGGGSGMSIEEITKQIAAIQLRIVGDQVQIYAMTGGSGGGSGGGSGGGSGGSIEEIQKSIAAIQKEIAAIQKQIYAMTP

- binding [1]: binds
- binding [2]: binds
- binding [3]: binds
B2: VPTLK-MCL1-AB1 (designed binder)
chain: B1 chain with K1V, L2P, P3T, V4L, M5K
